Measured values published in US10761045B2, “Sensor, sensor system, method of manufacturing sensor, and method of measuring concentration of target substance” (PHC Holdings Corporation, priority 2010, dated 2020).

experiment: Initial response current value of sensor for glucose solution; details: glucose 1,000 mg/dL; additive conc. 1.0-5.0 mM

Point of comparison: `OCc1nc[nH]c1CO` [4,5-Bis(hydroxymethyl) imidazole, 4,5-bis(hydroxymethyl)imidazole], “Initial response current value (μA) Glucose conc.: 1,000 mg/dL” value 19.6 μA. Against it:
- c1nc[nH]n1 [1,2,4-Triazole] — higher, 20 μA
- Cc1nccn1C [1,2-Dimethylimidazole] — lower, 5.9 μA
- Nc1ncc[nH]1 [2-Aminoimidazole] — lower, 17.9 μA
- Cc1ncc[nH]1 [2-Methylimidazle, 2-methylimidazole] — lower, 15.9 μA
- Nc1n[nH]c(N)n1 [3,5-Diamino-1,2,4-triazole] — higher, 25.7 μA
- Nc1nc[nH]n1 [3-Amino-1,2,4-triazole] — higher, 27.3 μA
- Nn1cnnc1 [4-Amino-1,2,4-triazole] — higher, 23 μA
- N=C(N)NCCC[C@H](N)C(=O)O [Arginine, reference compound] — lower, 18.8 μA
- NCCCCN [Butanediamine, reference compound] — lower, 19.2 μA
- NCCN [Ethylenediamine, reference compound] — higher, 21.9 μA
- NCCCCCCN [Hexanediamine, reference compound] — higher, 20.5 μA
- NCCc1c[nH]cn1 [Histamine] — higher, 23.1 μA
- N[C@@H](Cc1c[nH]cn1)C(=O)O [Histidine] — lower, 16.7 μA
- NCCCC[C@H](N)C(=O)O [Lysine, reference compound] — lower, 16.2 μA
- NCCCCCN [Pentanediamine, reference compound] — lower, 18.9 μA
- Ethyleneamine [reference compound] — lower, 11.5 μA
- Imidazole — higher, 20.7 μA
